Experimental data as given in patent US20040014942A1, “Mutant strains capable of producing chemically diversified proteins by incorporation of non-conventional amino acids” (priority 2000, published 2004).

test system: CU505 wt valS; test: Chemical composition of extracted proteins (amino acid analysis of hydrolysate); assay type: cell-based, E. coli; conditions: +Abu (0.2 mM L-amino-butyrate), valine limitation

Compound | Amino acid incorporated in the proteins
C[C@H](N)C(=O)O [Ala] | 1.32 Leu equivalents
CC[C@H](C)[C@H](N)C(=O)O [isoleucine] | 0.61 Leu equivalents
CC(C)[C@H](N)C(=O)O [valine] | 0.83 Leu equivalents
L-2-amino-butyrate | 0 Leu equivalents
